Experimental data published in patent publication US20240002531A1.
No constants are given. Whether binding was seen depends on the method and setting. Some entries that bind do so weakly or less than the wild type.

Columns and labels:
[1] = target: T1, I613A peptide (HER2 603-622 with I613A) (human); experiment: peptide ELISA, OD 655 nm
T1 sequence (peptide): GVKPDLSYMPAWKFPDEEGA

[2] = target: T2, K605A peptide (HER2 603-622 with K605A) (human); experiment: peptide ELISA, OD 655 nm
T2 sequence (peptide): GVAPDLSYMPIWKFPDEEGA

[3] = target: T3, P606A peptide (HER2 603-622 with P606A) (human); experiment: peptide ELISA, OD 655 nm
T3 sequence (peptide): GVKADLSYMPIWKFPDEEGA

[4] = target: T4, V604A peptide (HER2 603-622 with V604A) (human); experiment: peptide ELISA, OD 655 nm
T4 sequence (peptide): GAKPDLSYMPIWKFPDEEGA

[5] = target: T5, D607A peptide (HER2 603-622 with D607A) (human); experiment: peptide ELISA, OD 655 nm
T5 sequence (peptide): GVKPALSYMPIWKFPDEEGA

[6] = target: T6, K615A peptide (HER2 603-622 with K615A) (human); experiment: peptide ELISA, OD 655 nm
T6 sequence (peptide): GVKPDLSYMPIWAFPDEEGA

[7] = target: T7, L608A peptide (HER2 603-622 with L608A) (human); experiment: peptide ELISA, OD 655 nm
T7 sequence (peptide): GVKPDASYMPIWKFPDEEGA

[8] = target: T8, E619A peptide (HER2 603-622 with E619A) (human); experiment: peptide ELISA, OD 655 nm
T8 sequence (peptide): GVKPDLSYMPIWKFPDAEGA

[9] = target: T9, P617A peptide (HER2 603-622 with P617A) (human); experiment: peptide ELISA, OD 655 nm
T9 sequence (peptide): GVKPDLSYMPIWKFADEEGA

[10] = target: T10, Y610A peptide (HER2 603-622 with Y610A) (human); experiment: peptide ELISA, OD 655 nm
T10 sequence (peptide): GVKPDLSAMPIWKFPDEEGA

[11] = target: T11, G603A peptide (HER2 603-622 with G603A) (human); experiment: peptide ELISA, OD 655 nm
T11 sequence (peptide): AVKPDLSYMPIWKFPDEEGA

[12] = target: T12, P612A peptide (HER2 603-622 with P612A) (human); experiment: peptide ELISA, OD 655 nm
T12 sequence (peptide): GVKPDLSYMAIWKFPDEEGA

[13] = target: T13, HER2_604-622C peptide (NH2-…-COOH) (human); experiment: peptide ELISA, OD 655 nm
T13 sequence (peptide): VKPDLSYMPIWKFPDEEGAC

[14] = target: T14, E620A peptide (HER2 603-622 with E620A) (human); experiment: peptide ELISA, OD 655 nm
T14 sequence (peptide): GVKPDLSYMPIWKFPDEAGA

[15] = target: T15, HER2 peptide p603-622 (amino acids 603 to 622 of human HER2) (human); experiment: peptide ELISA, OD 655 nm
T15 sequence (peptide): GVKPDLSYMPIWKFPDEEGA

[16] = target: T16, D618A peptide (HER2 603-622 with D618A) (human); experiment: peptide ELISA, OD 655 nm
T16 sequence (peptide): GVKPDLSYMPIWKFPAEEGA

[17] = target: T17, S609A peptide (HER2 603-622 with S609A) (human); experiment: peptide ELISA, OD 655 nm
T17 sequence (peptide): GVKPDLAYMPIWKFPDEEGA

[18] = target: T18, G621A peptide (HER2 603-622 with G621A) (human); experiment: peptide ELISA, OD 655 nm
T18 sequence (peptide): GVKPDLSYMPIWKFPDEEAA

[19] = target: T19, M611A peptide (HER2 603-622 with M611A) (human); experiment: peptide ELISA, OD 655 nm
T19 sequence (peptide): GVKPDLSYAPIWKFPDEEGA

[20] = target: T13, HER2_604-622C peptide (NH2-…-COOH) (human); experiment: ELISA on coated HER2p604-622C, hybridoma supernatant
[21] = target: T20, HER2 peptide p613-621 (human); experiment: peptide ELISA, OD 655 nm
T20 sequence (peptide): IWKFPDEEG

[22] = target: T21, HER2 peptide p613-622 (human); experiment: peptide ELISA, OD 655 nm
T21 sequence (peptide): IWKFPDEEGA

[23] = target: T6, K615A peptide (HER2 603-622 with K615A) (human); experiment: ELISA on alanine-substituted peptides
[24] = target: T22, F616A peptide (HER2 603-622 with F616A) (human); experiment: ELISA on alanine-substituted peptides
T22 sequence (peptide): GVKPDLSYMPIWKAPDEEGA

Measured: binding

B1: H2Mab-286 antibody (antibody, mouse IgG1, kappa, V domains shown)
VH: DVQLQESGPGLVKPSQSLSLTCTVTGYSITSDYGWNWIRQFPGNKLEWMGYIRYSGITSYNPSLKSRISITRDTSKNQFFLQLNSVTTEDTATYYCTREVLSWGQGTTLTVSS
VL: DVVMTQTPLSLPVSLGDQASISCRSSQSLVHSNGNTYLHWFLQKPGQSPKLLIYKVSNRFSGVPARFSGSGSGTDFTLKISRVEAEDLGVYFCSQSTHVPPTFGGGTKLEIKR
not listed: [21] | [22] | [23] | [24]
binds: all other assays above

B2: H2Mab-214 antibody (antibody, V domains shown)
VH: QVTLKESGPGILQPSQTLSLTCSFSGFSLSTSGMGVSWIRQPSGKGLEWLAHIFWDDDKRYNPSLKSRLTISKDTSRNKVFLKITSVDTADTATYYCARRVVATDWYFDVWGAGTTVTVSS
VL: DIVLTQSPASLAVSLGQRATISCRASESVEYYGTTLMQWYQQKPGQPPKLLIYAASKVESGVPARFSGSGSGTDFSLNIHPVEEDDVAMYFCQQSRKVPLTFGAGTKLELKR
binds: [21] | [22] | [23] | [24]
